For at least one entry, the source does not settle the construct or the ends of the probe. At least one result comes from cells or an extract, where the contact may be indirect.

The subject of data set [1] is C/EBPbeta isoform LIP (Flag-LIP). Put plainly: EMSA supershift. As to conditions: anti-FLAG supershift; 20 mM HEPES pH 8.0, 1 mM MgCl2, 60 mM KCl, 0.1 mM EDTA, 15% glycerol, 1 ug poly dI-dC, 8 ug nuclear extract; 30 min room temperature then 15 min 4 C; gel at 4 C; protein in a lysate after overexpression; protein details: FLAG; label: 32P. For orientation: A gel shift assay detects complexes by their altered migration in electrophoresis.

The subject of a further data set is C/EBPbeta isoform LAP. The data set can be described thus: EMSA supershift. As to conditions: anti-C/EBPbeta supershift or abrogation; 20 mM HEPES pH 8.0, 1 mM MgCl2, 60 mM KCl, 0.1 mM EDTA, 15% glycerol, 1 ug poly dI-dC, 8 ug nuclear extract; 30 min room temperature then 15 min 4 C; gel at 4 C; protein in a lysate after overexpression; label: 32P.

Turning to “TGCAGATTGCGCAATCTGCA (double strand) [canonical C/EBP]”, the binding result (in data set [1]; in the data set on C/EBPbeta isoform LAP) was “binds” throughout.

The values above are taken from publication PMC3428313.
